Results as given in PubChem BioAssay AID212 (DTP/NCI, 2004).
The list does not hold the whole screen: it gathers tests that were run many times, whatever their T/C, doses with no T/C, and many T/C values between a quarter and a half above the control. Other doses and runs of a compound stand elsewhere. T/C: endpoint of the treated group in % of that of the vehicle group. Schedules are NCI's codes, taken here to give the interval after Q, in days (D) or hours (H), and the number of doses after X. Some T/C values carry the count of animals alive at the toxicity check (mostly the fifth day); where none is given, no animal had died by that day. Some doses were run more than once; the values are given in rising order. Some entries give survivors of the animals treated and no T/C: the source holds a T/C of zero for them, seemingly a mark for toxic or unscored doses. Counts of survivors are from the toxicity check (mostly the fifth day) where no day follows; animals may have died later. *1 amine or outer side, *2 acyl side, *3 side chain or, on linkers, in order; H or OH if unused. Where a SMILES comes first, the peptide text is derived from it. Bridges are numbered along the chain shown (N, C = ends). Roman numbers before positions name the chains, in order. [ ]: non-standard residue; d: D form. Actinocin(9to1) = Cc1c2oc3c(C)ccc(C(=O)[*:1])c3nc-2c(C(=O)[*:2])c(N)c1=O; aThr = C[C@H](O)[C@H](N)C(=O)O; NMeV = CN[C@H](C(=O)O)C(C)C; Sar = CNCC(=O)O

Test system: BDF1 mice, colon carcinoma 38 sc, T/C %
Assay: NCI In Vivo Anticancer Drug Screen. Data for tumor model Colon Carcinoma 38 (subcutaneous) in B6D2F1 (BDF1) mice
Conditions: T/C endpoint: median tumor weight (est.), higher T/C = larger tumour; for T/C: evaluated on day 20
How it was run: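 Transplantable tumor in mice; compound-treated vs vehicle-dosed controls. Measured survival or tumor size; value = T ÷ C.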

[1] = dose: 40.0 mg/kg/injection, schedule: Q07DX003 (ip), vehicle: Klucel (hydroxypropylcellulose) (HPC)

COC(=O)[C@@]12OC[C@]34[C@H]([C@@H](O)[C@@H]1O)[C@@]1(C)CC(=O)C(O)=C(C)[C@@H]1C[C@H]3OC(=O)[C@H](OC(=O)/C=C(\C)C(C)C)[C@@H]24
T/C (dose: 0.5 mg/kg/injection, schedule: Q07DX003 (ip), vehicle: other): 129 % of control | survivor count (dose: 4.0 mg/kg/injection, schedule: Q07DX003 (ip), vehicle: other): 6 of 10

CCC(=O)O[C@H]1CC[C@H]2[C@@H]3CCC4=CC(=O)CC[C@]4(C)[C@H]3CC[C@]12C
T/C (dose: 40.0 mg/kg/injection, schedule: Q07DX002 (ip), vehicle: Klucel (hydroxypropylcellulose) (HPC)): 147 % of control | T/C [1]: 96, 112, 138, 143 % of control [9 of 10 alive] | survivor count [1]: 6 of 10 | T/C (dose: 80.0 mg/kg/injection, schedule: Q07DX003 (ip), vehicle: Klucel (hydroxypropylcellulose) (HPC)): 123, 155, 178, 187, 202 % of control | T/C (dose: 160.0 mg/kg/injection, schedule: Q07DX002 (ip), vehicle: Klucel (hydroxypropylcellulose) (HPC)): 134 % of control | T/C (dose: 160.0 mg/kg/injection, schedule: Q07DX003 (ip), vehicle: Klucel (hydroxypropylcellulose) (HPC)): 122, 123 [9 of 10 alive], 130, 174, 243 % of control | T/C (dose: 320.0 mg/kg/injection, schedule: Q07DX003 (ip), vehicle: Klucel (hydroxypropylcellulose) (HPC)): 110, 115, 124, 151, 176 % of control | T/C (dose: 640.0 mg/kg/injection, schedule: Q07DX003 (ip), vehicle: Klucel (hydroxypropylcellulose) (HPC)): 138 [9 of 10 alive], 149, 150, 167, 170 % of control

CC1CC(C)CC(C)C(O)/C(C#N)=C/C=C/CC(C2CCCC2C(=O)O)OC(=O)CC(O)C(C)C1 (centres undefined)
T/C (dose: 2.0 mg/kg/injection, schedule: Q07DX002 (ip), vehicle: Klucel (hydroxypropylcellulose) (HPC)): 125 % of control [9 of 10 alive on day 20]

Cc1c2oc3c(C)ccc(C(=O)N[C@@H]4C(=O)N[C@H](C(C)C)C(=O)N5CCC[C@H]5C(=O)N(C)CC(=O)N(C)[C@@H](C(C)C)C(=O)O[C@H]4C)c3nc-2c(C(=O)N[C@@H]2C(=O)N[C@H](C(C)C)C(=O)N3CCC[C@H]3C(=O)N(C)CC(=O)N(C)[C@@H](C(C)C)C(=O)O[C@H]2C)c(N)c1=O (I: [aThr][dV]P[Sar][NMeV] / II: [aThr][dV]P[Sar][NMeV]; ester I:1-I:C, II:1-II:C; linker I:N-II:N via Actinocin(9to1))
T/C (dose: 25.0 micrograms/kg/injection, schedule: Q07DX002 (ip), vehicle: saline + alcohol): 135 % of control | T/C (dose: 50.0 micrograms/kg/injection, schedule: Q07DX002 (ip), vehicle: saline + alcohol): 135 % of control | survivor count (dose: 800.0 micrograms/kg/injection, schedule: Q07DX002 (ip), vehicle: saline + alcohol): 4 of 10 on day 20

Nc1n[nH]c(N)n1
T/C (dose: 100.0 mg/kg/injection, schedule: Q07DX003 (ip), vehicle: saline): 55, 103 [9 of 10 alive], 108 [9 of 10 alive], 158 % of control | T/C (dose: 200.0 mg/kg/injection, schedule: Q07DX003 (ip), vehicle: saline with Tween-80): 140 % of control | T/C (dose: 200.0 mg/kg/injection, schedule: Q07DX003 (ip), vehicle: saline): 71, 81, 108, 147 % of control | T/C (dose: 400.0 mg/kg/injection, schedule: Q07DX003 (ip), vehicle: saline): 57, 61, 65 [9 of 10 alive], 89 % of control | T/C (dose: 800.0 mg/kg/injection, schedule: Q07DX003 (ip), vehicle: saline): 56, 60, 90 [9 of 10 alive], 129 % of control | T/C (dose: 1600.0 mg/kg/injection, schedule: Q07DX003 (ip), vehicle: saline with Tween-80): 131 % of control | T/C (dose: 1600.0 mg/kg/injection, schedule: Q07DX003 (ip), vehicle: saline): 35 [9 of 10 alive], 72 [8 of 10 alive], 80 [9 of 10 alive], 137 % of control [9 of 10 alive]

N=c1ccn2c(n1)OC1C(O)C(CO)OC12 (centres undefined)
T/C (dose: 50.0 mg/kg/injection, schedule: Q07DX002 (ip), vehicle: saline): 129 % of control | survivor count (dose: 1600.0 mg/kg/injection, schedule: Q07DX002 (ip), vehicle: saline): 5 of 10 on day 20 | survivor count (dose: 3200.0 mg/kg/injection, schedule: Q07DX002 (ip), vehicle: saline): 0 of 10 on day 20
